PubChem BioAssay AID504793 – Drosophila RNAi Screening Center, 2011

Test: 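Knock-downs allowing continued mitosis even though DNA is damaged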 (primary screen)
System: Drosophila S2R+ cells
Reagents: long dsRNA against Drosophila genes, about 0.25 µg dsRNA per well
Time to read-out: 4 days of dsRNA, then 4 hours of drug before read-out
Challenge: doxorubicin 0.5 µM for 4 hours to cause double-strand breaks, in cells also given a low, harmless dose of dsRNA against nbs to sensitise the assay
Measured: 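Mitotic index as the number of phospho-histone H3-positive cells in each well following doxorubicin, given as raw counts without normalisation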
Reading the numbers: mitotic cells: higher = more cells in mitosis, weaker G2 arrest
Hit rule: 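Genes are called active only when high mitotic counts were reproduced with independent dsRNAs and mitosis was checked for delay without damage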
Calls: active = confirmed in follow-up tests; inactive = not confirmed
The screen tested about 23,000 reagents; below is a random part of those that have a named target and a result. In the full data, 62 (0.27%) were called active. 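Calls come from follow-up tests whose scores are not deposited, so confirmed genes may have low counts here; counts are not normalised per plate.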 Raw values vary from plate to plate and are shown uncorrected.

| Gene | dsRNA | mitotic cells, replicate 1 | mitotic cells, replicate 2 | call |
| --- | --- | --- | --- | --- |
| l(3)S110416 (retired record) (GeneID 46908) | DRSC17094 | 6 | – | inactive |
| Daao1 (GeneID 36128) | DRSC06131 | 4 | – | inactive |
| alpha-Est9 (GeneID 40897) | DRSC12621 | 4 | – | inactive |
| hb (GeneID 41032) | DRSC16963 | 8 | – | inactive |
| hb (GeneID 41032) | DRSC27856 | 7 | – | inactive |
| mnd (GeneID 39625) | DRSC11370 | 1 | – | inactive |
| RpL4 (GeneID 43349) | DRSC16833 | 7 | – | inactive |
| RpL4 (GeneID 43349) | DRSC25032 | 10 | – | inactive |
| CG32679 (GeneID 318150) | DRSC17644 | 11 | – | inactive |
| Catsup (GeneID 48805) | DRSC03288 | 12 | – | inactive |
| Catsup (GeneID 48805) | DRSC25727 | 1 | – | inactive |
| Hsc70-1 (GeneID 39542) | DRSC11185 | 7 | – | inactive |
| Hsc70-1 (GeneID 39542) | DRSC25201 | 10 | – | inactive |
| Muc96D (GeneID 318737) | DRSC23213 | 6 | – | inactive |
| Muc96D (GeneID 318737) | DRSC28500 | 9 | – | inactive |
| beat-IV (GeneID 42778) | DRSC14195 | 4 | – | inactive |
| beat-IV (GeneID 42778) | DRSC14673 | 14 | – | inactive |
| betaTry (GeneID 47901) | DRSC07582 | 16 | – | inactive |
| betaTry (GeneID 47901) | DRSC22377 | 8 | – | inactive |
| betaTry (GeneID 47901) | DRSC29939 | 2 | – | inactive |
| Ric (GeneID 36776) | DRSC07532 | 5 | – | inactive |
| Ric (GeneID 36776) | DRSC26601 | 7 | – | inactive |
| CG14958 (GeneID 38387) | DRSC08417 | 4 | – | inactive |
| CG3548 (GeneID 37932) | DRSC04387 | 7 | – | inactive |
| CG3548 (GeneID 37932) | DRSC29938 | 5 | – | inactive |
| CG11498 (GeneID 43585) | DRSC14315 | 15 | – | inactive |
| Oatp26F (GeneID 33927) | DRSC02149 | 3 | – | inactive |
| Oatp26F (GeneID 33927) | DRSC02272 | 3 | – | inactive |
| Oatp26F (GeneID 33927) | DRSC02695 | 6 | – | inactive |
| Oatp26F (GeneID 33927) | DRSC27346 | 5 | – | inactive |
| CG9875 (GeneID 37698) | DRSC04585 | 3 | – | inactive |
| CG18269 (GeneID 33785) | DRSC02660 | 6 | – | inactive |
| CG18746 (GeneID 59142) | DRSC15383 | 3 | – | inactive |
| Rap2l (GeneID 37850) | DRSC04646 | 10 | – | inactive |

Next part, starting with the last 9 of the part before.
| Gene | dsRNA | mitotic cells, replicate 1 | mitotic cells, replicate 2 | call |
| --- | --- | --- | --- | --- |
| CG11498 (GeneID 43585) | DRSC14315 | 15 | – | inactive |
| Oatp26F (GeneID 33927) | DRSC02149 | 3 | – | inactive |
| Oatp26F (GeneID 33927) | DRSC02272 | 3 | – | inactive |
| Oatp26F (GeneID 33927) | DRSC02695 | 6 | – | inactive |
| Oatp26F (GeneID 33927) | DRSC27346 | 5 | – | inactive |
| CG9875 (GeneID 37698) | DRSC04585 | 3 | – | inactive |
| CG18269 (GeneID 33785) | DRSC02660 | 6 | – | inactive |
| CG18746 (GeneID 59142) | DRSC15383 | 3 | – | inactive |
| Rap2l (GeneID 37850) | DRSC04646 | 10 | – | inactive |
| Acp53Ea (GeneID 36874) | DRSC05916 | 9 | – | inactive |
| CG7054 (GeneID 42643) | DRSC16185 | 10 | – | inactive |
| CG7054 (GeneID 42643) | DRSC26659 | 4 | – | inactive |
| ac (GeneID 30981) | DRSC18734 | 7 | – | inactive |
| ac (GeneID 30981) | DRSC25102 | 5 | – | inactive |
| CG8001 (GeneID 38224) | DRSC08611 | 8 | – | inactive |
| Nep3 (GeneID 33005) | DRSC20685 | 9 | – | inactive |
| Nep3 (GeneID 33005) | DRSC29285 | 8 | – | inactive |
| CG4476 (GeneID 39056) | DRSC10424 | 3 | – | inactive |
| CG4476 (GeneID 39056) | DRSC25362 | 3 | – | inactive |
| CG9171 (GeneID 33807) | DRSC03152 | 4 | – | inactive |
| CG9171 (GeneID 33807) | DRSC21813 | 11 | – | inactive |
| CG9171 (GeneID 33807) | DRSC24830 | 9 | – | inactive |
| CG13110 (GeneID 34253) | DRSC02208 | 6 | 13 | inactive |
| CG11030 (GeneID 33805) | DRSC02120 | 3 | – | inactive |
| CG11030 (GeneID 33805) | DRSC23703 | 4 | – | inactive |
| CG11417 (GeneID 31083) | DRSC18581 | 3 | – | inactive |
| CG17637 (GeneID 40275) | DRSC11740 | 4 | – | inactive |
| CG11269 (GeneID 37527) | DRSC04094 | 6 | – | inactive |
| cyr (GeneID 31733) | DRSC18017 | 15 | – | inactive |
| cyr (GeneID 31733) | DRSC18018 | 4 | – | inactive |
| lcs (GeneID 33120) | DRSC20580 | 9 | – | inactive |
| lcs (GeneID 33120) | DRSC25611 | 13 | – | inactive |
| CG32095 (GeneID 317849) | DRSC22615 | 6 | – | inactive |
| CG9399 (GeneID 41157) | DRSC16488 | 5 | – | inactive |
| snoRNA:Me18S-C1280 (retired record) (GeneID 5740487) | DRSC26813 | 12 | – | inactive |
| Myo95E (GeneID 2768680) | DRSC15821 | 9 | – | inactive |
| CG6739 (GeneID 34037) | DRSC02987 | 5 | – | inactive |
| Vps29 (GeneID 33295) | DRSC00666 | 4 | – | inactive |
| AttD (GeneID 42122) | DRSC16272 | 4 | – | inactive |
| TM4SF (GeneID 37786) | DRSC04661 | 6 | – | inactive |
| CtsL2 (GeneID 36531) | DRSC06978 | 3 | – | inactive |
| IPIP (GeneID 33849) | DRSC02164 | 3 | – | inactive |
| IPIP (GeneID 33849) | DRSC27480 | 8 | – | inactive |
| futsch (GeneID 5740544) | DRSC17688 | 6 | – | inactive |
| futsch (GeneID 5740544) | DRSC17949 | 8 | 9 | inactive |
| futsch (GeneID 5740544) | DRSC17952 | 3 | – | inactive |
| futsch (GeneID 5740544) | DRSC18543 | 17 | – | inactive |
| futsch (GeneID 5740544) | DRSC26427 | 7 | – | inactive |
| CG6333 (GeneID 39953) | DRSC10626 | 7 | – | inactive |
| CG32263 (GeneID 317944) | DRSC22431 | 5 | – | inactive |
| CG32263 (GeneID 317944) | DRSC29009 | 2 | – | inactive |
